Experimental findings from paper PMC6873818 are described below.

Amino acid sequences for entries named in this document (tags omitted).
UniProt Q8NFC6: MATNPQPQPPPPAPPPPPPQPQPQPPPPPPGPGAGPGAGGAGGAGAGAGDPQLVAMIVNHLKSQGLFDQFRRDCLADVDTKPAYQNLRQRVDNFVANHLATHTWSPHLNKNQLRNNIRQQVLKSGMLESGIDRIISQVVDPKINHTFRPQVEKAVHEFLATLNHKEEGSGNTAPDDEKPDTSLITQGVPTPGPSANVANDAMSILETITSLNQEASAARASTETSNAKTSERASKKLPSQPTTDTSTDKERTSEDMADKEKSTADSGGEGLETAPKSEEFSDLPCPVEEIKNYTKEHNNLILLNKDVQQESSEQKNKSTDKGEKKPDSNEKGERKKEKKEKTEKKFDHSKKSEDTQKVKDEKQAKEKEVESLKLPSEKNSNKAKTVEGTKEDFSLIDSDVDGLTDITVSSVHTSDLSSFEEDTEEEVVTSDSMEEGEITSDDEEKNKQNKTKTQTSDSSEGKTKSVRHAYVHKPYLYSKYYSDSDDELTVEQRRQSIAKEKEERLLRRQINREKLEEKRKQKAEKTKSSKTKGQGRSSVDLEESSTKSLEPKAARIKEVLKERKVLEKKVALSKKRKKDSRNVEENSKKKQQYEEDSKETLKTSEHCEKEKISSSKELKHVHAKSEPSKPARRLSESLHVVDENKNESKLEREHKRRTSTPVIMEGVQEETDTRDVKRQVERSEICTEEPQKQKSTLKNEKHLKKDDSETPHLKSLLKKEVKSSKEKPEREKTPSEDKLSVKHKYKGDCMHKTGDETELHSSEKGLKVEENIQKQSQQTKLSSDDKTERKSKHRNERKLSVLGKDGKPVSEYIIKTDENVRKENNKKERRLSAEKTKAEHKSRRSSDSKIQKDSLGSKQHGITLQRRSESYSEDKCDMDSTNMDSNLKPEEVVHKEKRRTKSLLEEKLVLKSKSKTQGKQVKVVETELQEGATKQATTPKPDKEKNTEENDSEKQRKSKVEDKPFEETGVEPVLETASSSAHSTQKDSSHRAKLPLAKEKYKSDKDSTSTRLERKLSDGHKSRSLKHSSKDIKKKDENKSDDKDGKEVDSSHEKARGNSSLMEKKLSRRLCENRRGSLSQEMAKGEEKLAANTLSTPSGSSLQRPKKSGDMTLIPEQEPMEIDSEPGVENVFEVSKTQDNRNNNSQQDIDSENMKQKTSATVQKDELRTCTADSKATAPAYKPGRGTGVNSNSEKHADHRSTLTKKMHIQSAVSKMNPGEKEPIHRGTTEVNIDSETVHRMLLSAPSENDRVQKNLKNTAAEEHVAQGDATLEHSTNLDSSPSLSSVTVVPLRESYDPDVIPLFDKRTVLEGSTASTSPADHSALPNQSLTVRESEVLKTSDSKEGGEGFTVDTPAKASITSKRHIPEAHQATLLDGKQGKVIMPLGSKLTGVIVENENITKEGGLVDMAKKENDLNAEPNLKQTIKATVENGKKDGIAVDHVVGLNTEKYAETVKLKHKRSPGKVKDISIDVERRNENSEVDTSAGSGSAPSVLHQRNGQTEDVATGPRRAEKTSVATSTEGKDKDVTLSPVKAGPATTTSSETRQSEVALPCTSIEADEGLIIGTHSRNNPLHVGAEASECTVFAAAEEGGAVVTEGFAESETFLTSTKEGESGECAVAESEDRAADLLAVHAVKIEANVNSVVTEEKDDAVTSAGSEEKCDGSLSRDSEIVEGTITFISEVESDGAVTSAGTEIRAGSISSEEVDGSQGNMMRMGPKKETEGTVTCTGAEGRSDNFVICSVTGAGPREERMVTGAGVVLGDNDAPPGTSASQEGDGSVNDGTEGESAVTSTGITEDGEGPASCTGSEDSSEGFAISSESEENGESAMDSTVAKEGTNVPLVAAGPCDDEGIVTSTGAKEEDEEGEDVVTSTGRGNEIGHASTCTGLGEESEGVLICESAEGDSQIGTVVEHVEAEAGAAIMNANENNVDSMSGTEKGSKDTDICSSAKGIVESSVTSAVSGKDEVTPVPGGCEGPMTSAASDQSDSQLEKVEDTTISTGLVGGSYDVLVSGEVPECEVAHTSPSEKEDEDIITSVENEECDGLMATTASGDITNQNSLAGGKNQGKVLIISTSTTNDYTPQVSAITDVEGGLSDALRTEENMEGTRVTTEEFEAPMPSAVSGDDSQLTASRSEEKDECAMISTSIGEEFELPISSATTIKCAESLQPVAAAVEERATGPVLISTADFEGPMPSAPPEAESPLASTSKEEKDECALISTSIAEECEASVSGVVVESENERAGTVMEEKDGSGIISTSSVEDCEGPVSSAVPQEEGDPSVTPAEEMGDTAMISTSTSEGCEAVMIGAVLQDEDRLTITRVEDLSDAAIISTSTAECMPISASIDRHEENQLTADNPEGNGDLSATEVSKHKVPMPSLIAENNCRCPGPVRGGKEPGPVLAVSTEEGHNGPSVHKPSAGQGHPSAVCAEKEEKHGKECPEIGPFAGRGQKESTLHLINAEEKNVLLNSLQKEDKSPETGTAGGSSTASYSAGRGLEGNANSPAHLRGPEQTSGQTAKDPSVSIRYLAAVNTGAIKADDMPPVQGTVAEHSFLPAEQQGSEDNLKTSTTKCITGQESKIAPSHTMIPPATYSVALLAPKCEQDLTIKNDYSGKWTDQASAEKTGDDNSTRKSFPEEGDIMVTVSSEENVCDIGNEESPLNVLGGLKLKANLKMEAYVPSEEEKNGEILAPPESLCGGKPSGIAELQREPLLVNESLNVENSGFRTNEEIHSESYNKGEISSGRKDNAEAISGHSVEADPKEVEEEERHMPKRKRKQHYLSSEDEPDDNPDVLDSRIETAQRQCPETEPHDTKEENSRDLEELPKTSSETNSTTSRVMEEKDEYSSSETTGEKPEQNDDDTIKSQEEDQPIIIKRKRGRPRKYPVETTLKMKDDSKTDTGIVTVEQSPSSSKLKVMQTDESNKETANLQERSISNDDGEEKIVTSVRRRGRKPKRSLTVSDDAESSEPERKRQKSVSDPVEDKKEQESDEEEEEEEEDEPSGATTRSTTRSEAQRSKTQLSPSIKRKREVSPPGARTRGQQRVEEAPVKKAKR
UniProt P35601: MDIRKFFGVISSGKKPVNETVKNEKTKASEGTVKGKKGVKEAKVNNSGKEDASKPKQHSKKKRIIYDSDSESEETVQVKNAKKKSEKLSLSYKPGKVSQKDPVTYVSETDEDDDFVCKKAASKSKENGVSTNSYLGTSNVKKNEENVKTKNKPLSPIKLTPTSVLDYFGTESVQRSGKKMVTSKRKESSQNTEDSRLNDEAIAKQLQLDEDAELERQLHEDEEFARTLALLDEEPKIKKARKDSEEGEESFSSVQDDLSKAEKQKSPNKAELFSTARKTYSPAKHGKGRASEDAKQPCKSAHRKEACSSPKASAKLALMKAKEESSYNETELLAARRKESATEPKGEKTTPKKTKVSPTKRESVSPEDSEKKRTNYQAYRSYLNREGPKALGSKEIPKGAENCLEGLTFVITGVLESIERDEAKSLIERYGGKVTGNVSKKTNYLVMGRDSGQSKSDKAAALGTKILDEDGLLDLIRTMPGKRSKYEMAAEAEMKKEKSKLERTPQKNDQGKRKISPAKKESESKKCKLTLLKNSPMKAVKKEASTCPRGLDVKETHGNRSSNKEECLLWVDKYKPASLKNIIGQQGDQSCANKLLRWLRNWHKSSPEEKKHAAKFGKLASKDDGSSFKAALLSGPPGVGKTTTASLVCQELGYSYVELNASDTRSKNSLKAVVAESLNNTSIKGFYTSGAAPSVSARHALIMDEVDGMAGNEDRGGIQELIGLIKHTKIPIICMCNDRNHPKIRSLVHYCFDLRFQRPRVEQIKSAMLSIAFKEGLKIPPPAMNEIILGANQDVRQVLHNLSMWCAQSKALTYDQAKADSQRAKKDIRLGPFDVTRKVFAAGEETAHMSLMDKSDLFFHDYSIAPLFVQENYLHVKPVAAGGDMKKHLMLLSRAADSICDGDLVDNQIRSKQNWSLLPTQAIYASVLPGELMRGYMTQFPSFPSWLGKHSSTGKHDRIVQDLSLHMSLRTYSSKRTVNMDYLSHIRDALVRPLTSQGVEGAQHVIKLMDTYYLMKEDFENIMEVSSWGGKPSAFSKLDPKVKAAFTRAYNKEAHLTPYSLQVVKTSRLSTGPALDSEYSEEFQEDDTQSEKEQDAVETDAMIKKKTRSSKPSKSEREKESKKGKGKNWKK
UniProt P35250: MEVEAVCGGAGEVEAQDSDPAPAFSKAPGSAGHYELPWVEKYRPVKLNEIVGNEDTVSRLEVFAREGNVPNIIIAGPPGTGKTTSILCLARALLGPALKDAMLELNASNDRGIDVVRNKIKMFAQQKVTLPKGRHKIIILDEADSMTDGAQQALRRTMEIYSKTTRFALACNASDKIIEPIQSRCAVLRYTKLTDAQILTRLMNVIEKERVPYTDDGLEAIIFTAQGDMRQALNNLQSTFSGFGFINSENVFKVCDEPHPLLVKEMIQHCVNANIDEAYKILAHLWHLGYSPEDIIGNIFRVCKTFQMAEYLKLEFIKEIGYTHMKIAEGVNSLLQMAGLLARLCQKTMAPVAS
UniProt Q9WUK4: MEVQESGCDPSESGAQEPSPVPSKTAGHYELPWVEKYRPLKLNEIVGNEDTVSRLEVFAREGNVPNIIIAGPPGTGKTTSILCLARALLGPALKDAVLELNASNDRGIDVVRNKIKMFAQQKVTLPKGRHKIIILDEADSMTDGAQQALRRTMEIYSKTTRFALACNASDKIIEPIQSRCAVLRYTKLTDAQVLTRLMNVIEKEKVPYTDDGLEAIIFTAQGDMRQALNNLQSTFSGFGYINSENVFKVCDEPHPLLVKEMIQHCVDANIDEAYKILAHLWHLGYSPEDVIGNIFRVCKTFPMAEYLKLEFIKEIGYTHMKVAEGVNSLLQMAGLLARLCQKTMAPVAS
UniProt Q9P0U4: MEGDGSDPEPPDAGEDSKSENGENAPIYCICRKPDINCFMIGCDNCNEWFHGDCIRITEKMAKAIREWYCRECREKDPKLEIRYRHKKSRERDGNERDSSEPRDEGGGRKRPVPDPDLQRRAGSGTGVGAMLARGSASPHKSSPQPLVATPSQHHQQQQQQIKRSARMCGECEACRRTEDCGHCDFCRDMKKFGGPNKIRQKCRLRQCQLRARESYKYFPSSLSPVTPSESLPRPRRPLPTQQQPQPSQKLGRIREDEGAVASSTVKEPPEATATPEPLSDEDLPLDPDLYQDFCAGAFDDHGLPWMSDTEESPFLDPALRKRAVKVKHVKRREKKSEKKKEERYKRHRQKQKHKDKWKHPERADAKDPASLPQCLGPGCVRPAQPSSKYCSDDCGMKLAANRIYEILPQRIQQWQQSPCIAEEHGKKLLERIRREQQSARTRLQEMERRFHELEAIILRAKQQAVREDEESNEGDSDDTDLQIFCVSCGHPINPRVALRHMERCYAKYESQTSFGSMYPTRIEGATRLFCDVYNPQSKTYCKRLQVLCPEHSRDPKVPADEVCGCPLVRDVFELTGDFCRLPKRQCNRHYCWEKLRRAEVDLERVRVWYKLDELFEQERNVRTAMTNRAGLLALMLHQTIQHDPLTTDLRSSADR
UniProt P40938: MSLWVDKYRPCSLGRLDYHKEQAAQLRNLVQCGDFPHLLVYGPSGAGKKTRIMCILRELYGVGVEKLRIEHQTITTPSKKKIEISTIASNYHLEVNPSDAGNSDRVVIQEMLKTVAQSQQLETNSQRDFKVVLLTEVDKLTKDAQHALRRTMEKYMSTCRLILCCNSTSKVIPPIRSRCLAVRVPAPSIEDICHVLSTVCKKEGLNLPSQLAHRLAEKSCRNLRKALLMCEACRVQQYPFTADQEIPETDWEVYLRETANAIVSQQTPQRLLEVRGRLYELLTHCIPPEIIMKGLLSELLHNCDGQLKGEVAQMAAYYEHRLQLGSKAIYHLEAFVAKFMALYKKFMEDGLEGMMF
UniProt P35249: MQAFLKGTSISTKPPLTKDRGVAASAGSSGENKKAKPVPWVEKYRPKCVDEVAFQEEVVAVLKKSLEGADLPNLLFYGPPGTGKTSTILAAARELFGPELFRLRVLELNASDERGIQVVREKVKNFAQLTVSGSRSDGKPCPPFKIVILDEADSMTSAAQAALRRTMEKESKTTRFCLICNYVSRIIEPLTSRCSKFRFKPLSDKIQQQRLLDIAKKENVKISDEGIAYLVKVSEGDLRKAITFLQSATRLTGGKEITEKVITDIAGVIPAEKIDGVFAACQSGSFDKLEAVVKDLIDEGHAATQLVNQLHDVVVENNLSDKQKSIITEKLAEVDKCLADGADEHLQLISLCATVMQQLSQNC
UniProt P40937: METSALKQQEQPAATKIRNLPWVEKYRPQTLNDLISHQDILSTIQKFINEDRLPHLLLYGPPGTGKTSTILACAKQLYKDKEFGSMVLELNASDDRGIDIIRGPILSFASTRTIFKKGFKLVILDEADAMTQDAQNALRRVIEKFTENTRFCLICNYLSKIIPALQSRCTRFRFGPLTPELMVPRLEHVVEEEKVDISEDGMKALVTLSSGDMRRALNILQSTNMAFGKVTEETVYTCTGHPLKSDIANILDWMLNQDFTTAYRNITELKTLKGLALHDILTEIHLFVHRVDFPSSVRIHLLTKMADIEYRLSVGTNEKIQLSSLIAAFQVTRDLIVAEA

No constants are given. Whether binding was seen depends on the method and setting. Some results given as binding are weak or reduced against the parent protein; the word gives no strength.

Experiment [1] addresses BOD1L1 (human (endogenous in HEK293T)) (UniProt Q8NFC6). Description: SEC; DIF-FRAC RNase A-treated sample (co-fractionation mass spectrometry): clarified HEK293T lysate with RNase A (80 ug, 30 min, room temperature), native SEC on BioSep-SEC-s4000 in PBS pH 7.2, 50 fractions, proteins of each fraction identified by LC-MS/MS; co-elution of elution profiles. Background: SEC sorts molecules by how far they enter the pores of the column.

Experiment [2] has the same target. Description: SEC; DIF-FRAC control sample (co-fractionation mass spectrometry): clarified HEK293T lysate without RNase A, native SEC on BioSep-SEC-s4000 in PBS pH 7.2, 50 fractions, proteins of each fraction identified by LC-MS/MS; co-elution of elution profiles.
Experiment [3] deals with T1, RFC1 (human) (human (endogenous in HEK293T)) (UniProt P35251).
T1 sequence: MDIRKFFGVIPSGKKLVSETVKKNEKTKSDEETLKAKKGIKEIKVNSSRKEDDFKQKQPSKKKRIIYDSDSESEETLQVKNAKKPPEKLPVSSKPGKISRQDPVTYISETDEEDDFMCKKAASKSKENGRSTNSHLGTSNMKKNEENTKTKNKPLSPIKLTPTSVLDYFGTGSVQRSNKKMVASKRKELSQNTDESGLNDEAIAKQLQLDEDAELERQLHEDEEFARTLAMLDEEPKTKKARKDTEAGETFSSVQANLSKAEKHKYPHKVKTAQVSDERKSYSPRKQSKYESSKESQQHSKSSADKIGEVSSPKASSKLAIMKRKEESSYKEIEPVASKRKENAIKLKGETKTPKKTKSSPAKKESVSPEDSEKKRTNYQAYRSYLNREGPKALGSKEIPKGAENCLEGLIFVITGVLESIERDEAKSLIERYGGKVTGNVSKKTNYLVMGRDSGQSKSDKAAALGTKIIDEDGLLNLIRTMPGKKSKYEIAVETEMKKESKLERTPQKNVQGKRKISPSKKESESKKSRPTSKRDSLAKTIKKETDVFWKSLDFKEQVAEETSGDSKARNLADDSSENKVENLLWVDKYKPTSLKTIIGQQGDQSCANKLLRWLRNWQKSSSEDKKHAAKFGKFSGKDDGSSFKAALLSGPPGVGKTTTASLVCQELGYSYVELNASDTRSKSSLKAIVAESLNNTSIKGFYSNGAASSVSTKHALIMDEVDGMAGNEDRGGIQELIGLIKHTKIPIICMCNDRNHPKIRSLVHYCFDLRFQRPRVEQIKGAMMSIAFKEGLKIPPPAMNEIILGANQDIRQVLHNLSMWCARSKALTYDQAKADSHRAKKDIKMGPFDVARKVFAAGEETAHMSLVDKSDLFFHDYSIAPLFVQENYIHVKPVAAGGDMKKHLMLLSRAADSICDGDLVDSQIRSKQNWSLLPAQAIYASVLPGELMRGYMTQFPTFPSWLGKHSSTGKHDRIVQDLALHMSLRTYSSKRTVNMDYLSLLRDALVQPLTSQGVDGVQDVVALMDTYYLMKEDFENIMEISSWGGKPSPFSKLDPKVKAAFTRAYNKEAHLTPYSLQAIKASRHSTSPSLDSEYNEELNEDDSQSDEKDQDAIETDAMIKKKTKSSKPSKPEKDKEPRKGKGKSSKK
Described as above.

Experiment [4] concerns the target RFC1 (mouse) (mouse (endogenous in J1 ES cells)) (UniProt P35601). Put plainly: SEC; DIF-FRAC control sample: mouse J1 ES cell lysate without RNase A, native SEC on BioSep-SEC-s4000 in PBS pH 7.2, fractions by LC-MS/MS; co-elution of elution profiles.
Experiment [5] concerns the target RFC2 (human) (human (endogenous in HEK293T)) (UniProt P35250). Put plainly: SEC; DIF-FRAC RNase A-treated sample (co-fractionation mass spectrometry): clarified HEK293T lysate with RNase A (80 ug, 30 min, room temperature), native SEC on BioSep-SEC-s4000 in PBS pH 7.2, 50 fractions, proteins of each fraction identified by LC-MS/MS; co-elution of elution profiles.
Experiment [6] deals with RFC2 (mouse) (mouse (endogenous in J1 ES cells)) (UniProt Q9WUK4). Put plainly: SEC; DIF-FRAC RNase A-treated sample: mouse J1 ES cell lysate with RNase A as for HEK293T, native SEC on BioSep-SEC-s4000 in PBS pH 7.2, fractions by LC-MS/MS; co-elution of elution profiles.
The target of experiment [7] is T2, CAPRIN1 (human (endogenous in HEK293T)) (UniProt Q14444).
T2 sequence: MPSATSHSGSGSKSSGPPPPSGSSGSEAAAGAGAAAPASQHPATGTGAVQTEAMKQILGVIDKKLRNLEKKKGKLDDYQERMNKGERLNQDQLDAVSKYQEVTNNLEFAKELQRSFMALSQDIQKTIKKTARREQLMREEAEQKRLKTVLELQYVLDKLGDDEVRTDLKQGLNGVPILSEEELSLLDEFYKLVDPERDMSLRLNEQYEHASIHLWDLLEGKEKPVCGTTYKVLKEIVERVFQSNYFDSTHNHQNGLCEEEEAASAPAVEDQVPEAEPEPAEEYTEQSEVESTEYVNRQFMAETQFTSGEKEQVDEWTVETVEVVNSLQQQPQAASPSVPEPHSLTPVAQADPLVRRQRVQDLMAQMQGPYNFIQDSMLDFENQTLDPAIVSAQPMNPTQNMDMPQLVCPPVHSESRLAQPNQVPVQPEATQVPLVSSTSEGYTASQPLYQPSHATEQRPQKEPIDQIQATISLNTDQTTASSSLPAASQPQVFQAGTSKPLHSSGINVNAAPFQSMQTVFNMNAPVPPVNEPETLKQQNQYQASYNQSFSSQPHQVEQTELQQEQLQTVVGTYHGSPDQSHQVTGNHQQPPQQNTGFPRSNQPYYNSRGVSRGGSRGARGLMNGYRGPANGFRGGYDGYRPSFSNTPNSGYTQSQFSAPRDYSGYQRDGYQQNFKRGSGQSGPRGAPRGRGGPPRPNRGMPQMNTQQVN
Description: SEC; DIF-FRAC control sample (co-fractionation mass spectrometry): clarified HEK293T lysate without RNase A, native SEC on BioSep-SEC-s4000 in PBS pH 7.2, 50 fractions, proteins of each fraction identified by LC-MS/MS; co-elution of elution profiles.

Experiment [8] deals with T3, NIPSNAP1 (human (endogenous in HEK293T)) (UniProt Q9BPW8).
T3 sequence: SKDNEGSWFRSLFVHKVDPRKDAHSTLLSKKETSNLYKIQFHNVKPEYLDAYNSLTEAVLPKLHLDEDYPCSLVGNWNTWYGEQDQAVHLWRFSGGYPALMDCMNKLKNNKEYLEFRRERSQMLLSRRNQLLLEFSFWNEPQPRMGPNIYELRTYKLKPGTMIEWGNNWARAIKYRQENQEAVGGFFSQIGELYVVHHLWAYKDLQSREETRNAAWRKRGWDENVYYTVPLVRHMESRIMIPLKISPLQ
Put plainly: SEC; DIF-FRAC RNase A-treated sample (co-fractionation mass spectrometry): clarified HEK293T lysate with RNase A (80 ug, 30 min, room temperature), native SEC on BioSep-SEC-s4000 in PBS pH 7.2, 50 fractions, proteins of each fraction identified by LC-MS/MS; co-elution of elution profiles.

Experiment [9] deals with T3, NIPSNAP1 (human (endogenous in HEK293T)). Description: SEC; DIF-FRAC control sample (co-fractionation mass spectrometry): clarified HEK293T lysate without RNase A, native SEC on BioSep-SEC-s4000 in PBS pH 7.2, 50 fractions, proteins of each fraction identified by LC-MS/MS; co-elution of elution profiles.

For ASH2L (from UniProt Q9UBL3 1-628), the binding entry in experiment [1] and in [2] was “binds” in each case. In the case of CXXC1 (from UniProt Q9P0U4 1-656), the binding result in experiment [1] and in [2] was “binds” in each case. Take RBBP5 (from UniProt Q15291 1-538): the binding entry in experiment [1] and in experiment [2] was “binds” throughout. “RFC2 (human) (from UniProt P35250 1-354)”: the binding entry in experiment [3] is “binds”. Regarding “RFC2 (mouse) (from UniProt Q9WUK4 1-349)”, in experiment [4], the binding entry was “binds”. As for “RFC3 (human) (from UniProt P40938 1-356)”, the binding entry in [5] and in experiment [3] was “binds” in each case. In the case of “RFC3 (mouse) (from UniProt Q8R323 1-356)”, the binding result in experiment [6] and in experiment [4] was “binds” throughout. As to “RFC4 (human) (from UniProt P35249 1-363)”, the binding entry in experiment [5] and in [3] was “binds” in each case. With “RFC4 (mouse) (from UniProt Q99J62 1-364)”, the binding result in experiment [6] and in [4] was “binds” each time. “RFC5 (human) (from UniProt P40937 1-340)”: the binding result in experiment [3] is given as “binds”. Turning to “RFC5 (mouse) (from UniProt Q9D0F6 1-339)”, the binding result in experiment [6] and in experiment [4] was “binds” in each case. As for SETD1A (from UniProt O15047 1-1707), the binding result in experiment [1] and in experiment [2] was “binds” throughout.

B1: G3BP2 (protein, UniProt Q9UN86 1-482)
chain: MVMEKPSPLLVGREFVRQYYTLLNKAPEYLHRFYGRNSSYVHGGVDASGKPQEAVYGQNDIHHKVLSLNFSECHTKIRHVDAHATLSDGVVVQVMGLLSNSGQPERKFMQTFVLAPEGSVPNKFYVHNDMFRYEDEVFGDSEPELDEESEDEVEEEQEERQPSPEPVQENANSGYYEAHPVTNGIEEPLEESSHEPEPEPESETKTEELKPQVEEKNLEELEEKSTTPPPAEPVSLPQEPPKAFSWASVTSKNLPPSGTVSSSGIPPHVKAPVSQPRVEAKPEVQSQPPRVREQRPRERPGFPPRGPRPGRGDMEQNDSDNRRIIRYPDSHQLFVGNLPHDIDENELKEFFMSFGNVVELRINTKGVGGKLPNFGFVVFDDSEPVQRILIAKPIMFRGEVRLNVEEKKTRAARERETRGGGDDRRDIRRNDRGPGGPRGIVGGGMMRDRDGRGPPPRGGMAQKLGSGRGTGQMEGRFTGQRR
For B1, the binding entry in [7] is given as “binds”.

B2: NUFIP2 (protein, UniProt Q7Z417 1-695)
chain: MEEKPGQPQPQHHHSHHHPHHHPQQQQQQPHHHHHYYFYNHSHNHHHHHHHQQPHQYLQHGAEGSPKAQPKPLKHEQKHTLQQHQETPKKKTGYGELNGNAGEREISLKNLSSDEATNPISRVLNGNQQVVDTSLKQTVKANTFGKAGIKTKNFIQKNSMDKKNGKSYENKSGENQSVDKSDTIPIPNGVVTNNSGYITNGYMGKGADNDGSGSESGYTTPKKRKARRNSAKGCENLNIVQDKIMQQETSVPTLKQGLETFKPDYSEQKGNRVDGSKPIWKYETGPGGTSRGKPAVGDMLRKSSDSKPGVSSKKFDDRPKGKHASAVASKEDSWTLFKPPPVFPVDNSSAKIVPKISYASKVKENLNKTIQNSSVSPTSSSSSSSSTGETQTQSSSRLSQVPMSALKSVTSANFSNGPVLAGTDGNVYPPGGQPLLTTAANTLTPISSGTDSVLQDMSLTSAAVEQIKTSLFIYPSNMQTMLLSTAQVDLPSQTDQQNLGDIFQNQWGLSFINEPSAGPETVTGKSSEHKVMEVTFQGEYPATLVSQGAEIIPSGTEHPVFPKAYELEKRTSPQVLGSILKSGTTSESGALSLEPSHIGDLQKADTSSQGALVFLSKDYEIESQNPLASPTNTLLGSAKEQRYQRGLERNDSWGSFDLRAAIVYHTKEMESIWNLQKQDPKRIITYNEAMDSPDQ
With B2, in experiment [7], the binding entry is reported as “binds”.

B3: NIPSNAP2 (protein, UniProt O75323 24-286)
chain: CSLLPRLRTWTSSSNRSREDSWLKSLFVRKVDPRKDAHSNLLAKKETSNLYKLQFHNVKPECLEAYNKICQEVLPKIHEDKHYPCTLVGTWNTWYGEQDQAVHLWRYEGGYPALTEVMNKLRENKEFLEFRKARSDMLLSRKNQLLLEFSFWNEPVPRSGPNIYELRSYQLRPGTMIEWGNYWARAIRFRQDGNEAVGGFFSQIGQLYMVHHLWAYRDLQTREDIRNAAWHKHGWEELVYYTVPLIQEMESRIMIPLKTSPLQ
As for B3, the binding entry in [8] and in experiment [9] was “binds” each time.
